Literature values in PMC4335872, “Pharmacokinetic-Pharmacodynamic Analysis of Spiroindolone Analogs and KAE609 in a Murine Malaria Model” (Antimicrobial Agents and Chemotherapy, 2015).

Design: method as in PMID 24089407
Conditions: cited from earlier work

Compound: CCN(CC)CCCC(C)Nc1ccnc2cc(Cl)ccc12 (stereo not shown) [chloroquine]
- PK-PD relationship (type of killing): time-dependent killing
